Measured values taken from patent US8299048B2, “Hexahydrocyclopentyl[f]indazole sulfonamides and derivatives thereof as selective glucocorticoid receptor modulators” (Merck Sharp & Dohme Corp., priority 2008, dated 2012).
For part of these data: At least one structure is not confirmed: it was looked up by name or label, or the drawing left a doubt. Some entries share one result that the patent states for a list of compounds.

Assays:
[1] = molecular target: T1, glucocorticoid receptor (Homo sapiens, UniProt P04150); assay: Ligand binding assay (GR BIND); settings: displacement of 3H-DEX, MDA-MB-453 cell lysate, DEX as reference
T1 construct: endogenous in cells
T1 sequence (P04150 1-777): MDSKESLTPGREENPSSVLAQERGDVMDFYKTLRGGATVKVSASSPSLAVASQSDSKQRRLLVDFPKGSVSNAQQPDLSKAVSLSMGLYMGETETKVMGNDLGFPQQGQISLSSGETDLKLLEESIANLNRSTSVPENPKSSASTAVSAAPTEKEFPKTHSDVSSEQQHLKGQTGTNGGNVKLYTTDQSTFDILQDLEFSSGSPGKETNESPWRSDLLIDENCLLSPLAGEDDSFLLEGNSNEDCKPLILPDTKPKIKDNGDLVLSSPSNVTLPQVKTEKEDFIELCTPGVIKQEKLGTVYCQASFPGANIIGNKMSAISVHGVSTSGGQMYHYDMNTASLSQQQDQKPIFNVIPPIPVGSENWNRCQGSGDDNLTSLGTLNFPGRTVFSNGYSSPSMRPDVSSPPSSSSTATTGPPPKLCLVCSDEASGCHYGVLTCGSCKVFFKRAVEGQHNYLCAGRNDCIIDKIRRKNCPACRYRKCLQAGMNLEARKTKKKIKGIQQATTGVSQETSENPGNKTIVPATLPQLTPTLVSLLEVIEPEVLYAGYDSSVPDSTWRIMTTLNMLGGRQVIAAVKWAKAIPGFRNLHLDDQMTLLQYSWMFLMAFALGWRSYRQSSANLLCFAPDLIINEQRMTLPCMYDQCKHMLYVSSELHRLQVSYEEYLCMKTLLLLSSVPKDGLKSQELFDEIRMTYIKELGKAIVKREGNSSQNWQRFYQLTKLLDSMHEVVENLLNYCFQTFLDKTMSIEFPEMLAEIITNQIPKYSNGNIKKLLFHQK
Outline: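 Cytosol from freeze–thawed cells in TEGM (pH 7.2, 10 mM molybdate) was incubated overnight at 4 °C with compound and [3H]-dexamethasone trace (added as 6 nM solution), 2% EtOH final. Bound ligand was captured on hydroxylapatite, filtered, washed and scintillation counted. Values were calculated with dexamethasone as reference.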

[2] = molecular target: T2, human GR (Homo sapiens, UniProt P04150); assay: Transrepression Assay (GITAR), TNFα-β-lactamase reporter in U937 cells; assay type: cell-based; set-up: U937 cells contain an endogenous glucocorticoid receptor (GR); endogenous in cells; host or cells: U937 cells stably transfected with the TNF-alpha promoter/beta-lactamase reporter; settings: for GITAR > GRAMM % SEP: GITAR Emax minus GRAMMER Emax
T2 sequence (P04150 1-777): T1 sequence (P04150 1-777)
Text: This assay assesses the ability of test compounds to control transcription from the TNFα-β-lactamase reporter gene in U937 cells, a human myelomonocytic leukemia cell line that naturally expresses the human GR. The assay measures compound dependent-repression of the TNFa promoter linked to a reporter gene.
The human U937 cells that had been stablely transfected with the TNF-α promoter driving β-lactamase are used for this assay. U937 cells contain an endogenous glucocorticoid receptor (GR). Cells are maintained in RPMI 1640 Growth medium (Gibco Cat#11875-093) containing 25 mM HEPES, 10% FBS, 2 mM L-Glutamine, 1 mM Sodium pyruvate, 25 μg/ml Gentamicin (Gibco Cat#15710-064), 1:1000 2-Mercaptoethanol (Gibco Cat#21985-023) and 0.8 mg/ml G418 (Gibco Cat#10131-027). The density of the cells in the flask needs to be about 1×10^6−3×10^6/ml at the time of harvest. Usually, the cells are split to 1.2˜1.4×10^5/ml (1:10) 3 days prior to the assay. 50,000 cells/well are plated in 96 well black-walled plates the day of assay. Test compounds are added 10 μL/well, and cells are incubated at 37° C. for 30˜45 min. For assaying compounds, first dilute 1:10 in DMSO to make 1 mM, then further dilute 1:100 in medium to make 10× stock prior to adding to the cells. Add 50 ng/mlPMA (Sigma, cat# P8139) 10 μL/well to a final concentration 5 ng/ml, and 1 μg/ml LPS (Sigma, cat# L4130) 10 μL/well to a final concentration 100 ng/ml. Incubate cells at 37° C. overnight for ˜18 hr. PMA is stored frozen as 100 μg/ml stock in DMSO. Dilute 1:10 in DMSO for a working stock of 10 μg/ml and store at −20 C. For assaying, dilute the 10 μg/ml working stock 1:200 in medium to make a 10× solution (50 ng/ml). Store frozen LPS at 1 mg/ml in PBS, dilute 1:1000 in medium to make 10× (1 μg/ml) for the assay. Add 6× loading buffer (CCF2-AM) 20 μL/well, and incubate at room temperature for 70˜90 min. […] The activity repressed by 100 nM dexamethasone alone is set as 100% activity.

Structure (SMILES)	IC50 [1] [µM]	GITAR > GRAMM % SEP [2] [%]	maximal activity in the transrepression (GITAR) assay ([2]; activity repressed by 100 nM dexamethasone alone set as 100%)
C[C@]12Cc3cnn(-c4ccc(F)cc4)c3C=C1CC[C@@H]2CN(CC1CC1)S(=O)(=O)c1ccccc1F [Example 2, N-(cyclopropylmethyl)-2-fluoro-N-{[(4αR,5S)-1-(4-fluorophenyl)-4α-methyl-1,4,4α,5,6,7-hexahydrocyclopenta[f]indazol-5-yl]methyl}benzenesulfonamide]	< 1	22.7	
C=CCN(C[C@H]1CCC2=Cc3c(cnn3-c3ccc(F)cc3)C[C@@]21C)S(=O)(=O)c1ccccc1F [Example 3, N-allyl-2-fluoro-N-{[(4αR,5S)-1-(4-fluorophenyl)-4α-methyl-1,4,4α,5,6,7-hexahydrocyclopenta[f]indazol-5-yl]methyl}benzenesulfonamide]	< 1	25.8	
C[C@]12Cc3cnn(-c4ccc(F)cc4)c3C=C1CC[C@@H]2CN(CCC#N)S(=O)(=O)c1ccccc1F [Example 16, N-(2-cyanoethyl)-2-fluoro-N-{[(4αR,5S)-1-(4-fluorophenyl)-4α-methyl-1,4,4α,5,6,7-hexahydrocyclopenta[f]indazol-5-yl]methyl}benzenesulfonamide]	< 1	31.4	
C[C@]12Cc3cnn(-c4ccc(F)cc4)c3C=C1CC[C@@H]2CN(CCO)S(=O)(=O)c1ccccc1F [Example 17, 2-fluoro-N-{[(4αR,5S)-1-(4-fluorophenyl)-4α-methyl-1,4,4α,5,6,7-hexahydrocyclopenta[f]indazol-5-yl]methyl}-N-(2-hydroxyethyl)benzenesulfonamide]	< 1	44.8	
C[C@]12Cc3cnn(-c4ccc(F)cc4)c3C=C1CC[C@@H]2CN(CC1CC1)S(=O)(=O)Cc1ccccc1 [Example 21, N-(cyclopropylmethyl)-N-{[(4αR,5S)-1-(4-fluorophenyl)-4α-methyl-1,4,4α,5,6,7-hexahydrocyclopenta[f]indazol-5-yl]methyl}-1-phenylmethanesulfonamide]	< 1	25.2	
C[C@]12Cc3cnn(-c4ccc(F)cc4)c3C=C1CC[C@@H]2CN(CC1CC1)S(=O)(=O)c1ccccc1Cl [Example 22, 2-chloro-N-(cyclopropylmethyl)-N-{[(4αR,5S)-1-(4-fluorophenyl)-4α-methyl-1,4,4α,5,6,7-hexahydrocyclopenta[f]indazol-5-yl]methyl}benzenesulfonamide]			greater than 5%
C[C@]12Cc3cnn(-c4ccccc4)c3C=C1CC[C@@H]2CN(CCc1ccccn1)S(=O)(=O)Cc1cccnc1 [Example 140, N-{[(4αR,5S)-4α-methyl-1-phenyl-1,4,4α,5,6,7-hexahydrocyclopenta[f]indazol-5-yl]methyl}-1-pyridin-3-yl-N-(2-pyridin-2-ylethyl)methanesulfonamide]	< 1	15.6	
Cn1cc(S(=O)(=O)N(CC2CCCO2)C[C@H]2CCC3=Cc4c(cnn4-c4ccc(F)cc4)C[C@@]32C)c(C(F)(F)F)n1 (stereo partly drawn) [Example 175, N-{[(4αR,5S)-1-(4-fluorophenyl)-4α-methyl-1,4,4α,5,6,7-hexahydrocyclopenta[f]indazol-5-yl]methyl}-1-methyl-N-(tetrahydrofuran-2-ylmethyl)-3-(trifluoromethyl)-1H-pyrazole-4-sulfonamide]	< 1	24.8	
CC(C)(O)CN(C[C@H]1CCC2=Cc3c(cnn3-c3ccc(F)cc3)C[C@@]21C)S(=O)(=O)c1ccccc1F [Example 199, 2-fluoro-N-{[(4αR,5S)-1-(4-fluorophenyl)-4α-methyl-1,4,4α,5,6,7-hexahydrocyclopenta[f]indazol-5-yl]methyl}-N-(2-hydroxy-2-methylpropyl)benzenesulfonamide]	< 1		
C[C@]12Cc3cnn(-c4ccc(F)cc4)c3C=C1CC[C@@H]2CN(CC1(O)CC1)S(=O)(=O)c1ccccc1F [Example 200, 2-fluoro-N-{[(4αR,5S)-1-(4-fluorophenyl)-4α-methyl-1,4,4α,5,6,7-hexahydrocyclopenta[f]indazol-5-yl]methyl}-N-[(1-hydroxycyclopropyl)methyl]benzenesulfonamide]	< 1		
C[C@]12Cc3cnn(-c4ccc(F)cc4)c3C=C1CC[C@@H]2CN(CC1(O)CCCCC1)S(=O)(=O)c1ccccc1F [Example 201, 2-fluoro-N-{[(4αR,5S)-1-(4-fluorophenyl)-4α-methyl-1,4,4α,5,6,7-hexahydrocyclopenta[f]indazol-5-yl]methyl}-N-[(1-hydroxycyclohexyl)methyl]benzenesulfonamide]	< 1		
